Assay results published in US20160369115A1, “POLARIZING PLATE COMPOSITION, POLARIZING PLATE PROTECTIVE FILM, POLARIZER, POLARIZING PLATE, LIQUID CRYSTAL DISPLAY DEVICE, AND COMPOUND USED IN THE LIQUID CRYSTAL DISPLAY DEVICE” (FUJIFILM Corporation, priority 2014, published 2016).
Some entries repeat one wording, which the source may state once for all of them. Some ranges recur; such a range may be that of the whole group of compounds.

How the values were obtained:
[1] = Evaluation of durability of polarizing plate, additive in adhesive layer (Example 3); conditions: added amount 10.0 per 100 parts by mass of the polyvinyl alcohol resin, film thickness 5 μm
[2] = Evaluation of durability of polarizing plate, additive in polarizer (Example 2); conditions: added amount 1.0 per 100 parts by mass of polyvinyl alcohol resin, 410 nm
[3] = Bleed-out properties in polarizer (haze evaluation); conditions: haze of polarizing plate; additive in polarizer, added amount 1.0 per 100 parts by mass of polyvinyl alcohol resin
[4] = Evaluation of light-fast adhesiveness of polarizing plate protective film with hardcoat layer; conditions: additive in protective film: Cellulose acylate, 25 μm, added amount 4.0 per 100 parts by mass of film resin; light 96 hours, 60° C., 50% RH
[5] = Durability evaluation of polarizing plate, additive in polarizing plate protective film (Example 1); conditions: additive in protective film: Cellulose acylate, 25 μm, added amount 4.0 per 100 parts by mass of film resin; 410 nm

Row | Compound | Light-fast adhesiveness [4] | Durability of polarizer: amount of change of orthogonal transmittance (%) 60° C., 95%, 500 hours [5] | Durability of polarizer: amount of change of orthogonal transmittance (%) 60° C., 95%, 1,000 hours [5] | Durability of polarizer: amount of change of orthogonal transmittance (%) 80° C., Dry 500 hours [5] | Durability of polarizer: amount of change of orthogonal transmittance (%) 80° C., Dry, 1,000 hours [5] | also measured
1 | COC(=O)Oc1[nH]c(=O)n(CCCS(=O)(=O)[O-])c(=O)c1Cc1ccc(C=O)cc1.[Na+] [Example compound AAC] | – | – | – | – | – | Durability of polarizer: amount of change of degree of polarization (%) 60° C., 95%, 500 hours [1]: A+ (The amount of change of the degree of polarization before and after the elapse of time was less than 0.05%.); Durability of polarizer: amount of change of degree of polarization (%) 60° C., 95%, 1,000 hours [1]: A+ (The amount of change of the degree of polarization before and after the elapse of time was less than 1.0%.); Durability of polarizer: amount of change of degree of polarization (%) 80° C., Dry, 500 hours [1]: A+ (The amount of change of the degree of polarization before and after the elapse of time was less than 0.05%.); Durability of polarizer: amount of change of degree of polarization (%) 80° C., Dry, 1,000 hours [1]: A+ (The amount of change of the degree of polarization before and after the elapse of time was less than 0.1%.); Durability of polarizer: amount of change of orthogonal transmittance (%) 60° C., 95%, 500 hours ([1]; 410 nm): A+ (The amount of change of the orthogonal transmittance before and after the elapse of time was less than 0.1%.); Durability of polarizer: amount of change of orthogonal transmittance (%) 60° C., 95%, 1,000 hours ([1]; 410 nm): A+ (The amount of change of the orthogonal transmittance before and after the elapse of time was less than 0.5%.); Durability of polarizer: amount of change of orthogonal transmittance (%) 80° C., Dry 500 hours ([1]; 410 nm): A+ (The amount of change of the orthogonal transmittance before and after the elapse of time was less than 0.05%.); Durability of polarizer: amount of change of orthogonal transmittance (%) 80° C., Dry, 1,000 hours ([1]; 410 nm): A+ (The amount of change of the orthogonal transmittance before and after the elapse of time was less than 0.1%.); Durability of polarizer: amount of change of degree of polarization (%) 60° C., 95%, 500 hours [2]: A+ (The amount of change of the degree of polarization before and after the elapse of time was less than 0.05%.); Durability of polarizer: amount of change of degree of polarization (%) 60° C., 95%, 1,000 hours [2]: A+ (The amount of change of the degree of polarization before and after the elapse of time was less than 1.0%.); Durability of polarizer: amount of change of degree of polarization (%) 80° C., Dry, 500 hours [2]: A+ (The amount of change of the degree of polarization before and after the elapse of time was less than 0.05%.); Durability of polarizer: amount of change of degree of polarization (%) 80° C., Dry, 1,000 hours [2]: A+ (The amount of change of the degree of polarization before and after the elapse of time was less than 0.1%.); Durability of polarizer: amount of change of orthogonal transmittance (%) 60° C., 95%, 500 hours [2]: A+ (The amount of change of the orthogonal transmittance before and after the elapse of time was less than 0.1%.); Durability of polarizer: amount of change of orthogonal transmittance (%) 60° C., 95%, 1,000 hours [2]: A+ (The amount of change of the orthogonal transmittance before and after the elapse of time was less than 0.5%.); Durability of polarizer: amount of change of orthogonal transmittance (%) 80° C., Dry 500 hours [2]: A+ (The amount of change of the orthogonal transmittance before and after the elapse of time was less than 0.05%.); Durability of polarizer: amount of change of orthogonal transmittance (%) 80° C., Dry, 1,000 hours [2]: A+ (The amount of change of the orthogonal transmittance before and after the elapse of time was less than 0.1%.); Bleed out [3]: A (The haze was less than 0.3%.)
2 | CS(=O)(=O)Oc1c(-c2ccccc2)c(=O)n(-c2ccccc2)c(=O)n1-c1ccccc1 [Example compound M] | B (The number of cells peeled off among 100 cells was 11 to 20.) | A (The amount of change of the orthogonal transmittance before and after the elapse of time was equal to or greater than 0.4% and less than 0.6%.) | A+ (The amount of change of the orthogonal transmittance before and after the elapse of time was less than 1.0%.) | A (The amount of change of the orthogonal transmittance before and after the elapse of time was equal to or greater than 0.1% and less than 0.3%.) | A+ (The amount of change of the orthogonal transmittance before and after the elapse of time was less than 0.5%.) | –
3 | Cc1ccc(S(=O)(=O)Oc2c(Cc3ccccc3)c(=O)n(-c3ccccc3)c(=O)n2-c2ccccc2)cc1 [Example compound N] | A (The number of cells peeled off among 100 cells was equal to or less than 10.) | A (The amount of change of the orthogonal transmittance before and after the elapse of time was equal to or greater than 0.4% and less than 0.6%.) | A+ (The amount of change of the orthogonal transmittance before and after the elapse of time was less than 1.0%.) | A (The amount of change of the orthogonal transmittance before and after the elapse of time was equal to or greater than 0.1% and less than 0.3%.) | A+ (The amount of change of the orthogonal transmittance before and after the elapse of time was less than 0.5%.) | –
4 | O=P(O)(Oc1ccccc1)Oc1ccccc1 [Organic acid 3, reference compound] | B (The number of cells peeled off among 100 cells was 11 to 20.) | B (The amount of change of the orthogonal transmittance before and after the elapse of time was equal to or greater than 0.6% and less than 0.8%.) | B (The amount of change of the orthogonal transmittance before and after the elapse of time was equal to or greater than 1.4% and less than 1.6%.) | B (The amount of change of the orthogonal transmittance before and after the elapse of time was equal to or greater than 0.3% and less than 0.5%.) | B (The amount of change of the orthogonal transmittance before and after the elapse of time was equal to or greater than 0.8% and less than 1.0%.) | –
5 | CCC(C)(C)c1ccc(OCCCC(=O)O)c(C(C)(C)CC)c1 [Organic acid 4, reference compound] | C (The number of cells peeled off among 100 cells was 21 to 30.) | A (The amount of change of the orthogonal transmittance before and after the elapse of time was equal to or greater than 0.4% and less than 0.6%.) | A (The amount of change of the orthogonal transmittance before and after the elapse of time was equal to or greater than 1.0% and less than 1.4%.) | A (The amount of change of the orthogonal transmittance before and after the elapse of time was equal to or greater than 0.1% and less than 0.3%.) | A (The amount of change of the orthogonal transmittance before and after the elapse of time was equal to or greater than 0.5% and less than 0.8%.) | –
